Measurements: patent US9982232B2, “Methods of generating cells with multilineage potential” (NEWSOUTH INNOVATIONS PTY LIMITED, priority 2012, dated 2018)
For at least one compound, name, drawing or mass did not settle the structure.

System: primary osteoblasts
Assay: Inhibitor studies: PDGF-AB/AZA mediated oCFU-F production from primary osteoblasts
Type: cell-based, mouse
Settings: inhibitor in reprogramming cocktail from day 1 for 12 days
Method: In vitro differentiated bone, cartilage, fat and long-bone derived osteocytes were first cultured in MSC medium (αMEM+20% FCS+P/S/G) with or without 10 μM 5′Azacitidine (Tocris Biosciences) and with or without cytokine (50 or 100 ng/ml Pdgf-AA or Pdgf-BB or Pdgf-AB, 10 ng/ml bFgf, 20 ng/ml HGF, 10 ng/ml Igf-1 and 10 ng/ml Vegf for 2 days and then cultured in MSC media with or without cytokine for 10 days. In order to investigate the reprogramming cell signalling pathways, inhibitors were added to the reprogramming cocktail from day 1 and kept for 12 days. Media was refreshed every 3-4 days. At the end of day 12 cells were harvested for downstream analysis.
Active Pdgf isoforms stimulate cells by binding to and activating signalling by dimerization of two distinct, but structurally related, membrane bound receptor tyrosine kinases; Pdgf receptor-α (Pdgfrα) and Pdgf receptor-β (Pdgfrβ). Pdgf-BB has a greater binding affinity for Pdgfrβ but can also bind Pdgfrα whereas Pdgf-AA interacts only with Pdgfrα. Therefore, Pdgf-AA induces αα-receptor homodimers, PDGF-AB, both αα-receptor homodimers and αβ-receptor heterodimers and Pdgf-BB, all three dimeric combinations of α and β receptors, however in vivo binding of PDGF-AB is not known. Primary osteoblasts express Pdgfrβ but not Pdgfrα. […]

O=c1cc(N2CCOCC2)oc2c(-c3ccccc3)cccc12 [LY294002]
PDGF-AB/AZA mediated oCFU-F production from primary osteoblasts in presence of inhibitor: no impact on oCFU-F production

COC[C@H]1OC(=O)c2coc3c2[C@@]1(C)C1=C(C3=O)[C@@H]2CCC(=O)[C@@]2(C)C[C@H]1OC(C)=O [Wortmannin]
PDGF-AB/AZA mediated oCFU-F production from primary osteoblasts in presence of inhibitor: no impact on oCFU-F production
